In the supplement of paper PMC10849652:
The other results are listed elsewhere or left out.

Sequences of proteins named here, by UniProt entry; tags and fusion partners are left off. A change or cut given only in a name is not applied to a line headed by its entry.
UniProt P55039: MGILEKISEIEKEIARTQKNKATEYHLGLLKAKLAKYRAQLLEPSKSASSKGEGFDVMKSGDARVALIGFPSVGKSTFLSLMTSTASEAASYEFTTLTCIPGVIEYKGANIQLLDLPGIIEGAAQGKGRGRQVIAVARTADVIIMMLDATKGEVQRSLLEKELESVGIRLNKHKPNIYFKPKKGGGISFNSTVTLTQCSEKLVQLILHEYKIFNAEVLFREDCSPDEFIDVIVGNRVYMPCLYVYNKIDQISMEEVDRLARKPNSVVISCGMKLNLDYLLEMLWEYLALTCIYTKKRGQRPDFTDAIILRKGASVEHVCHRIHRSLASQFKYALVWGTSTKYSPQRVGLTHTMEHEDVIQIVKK
UniProt Q9BZQ6: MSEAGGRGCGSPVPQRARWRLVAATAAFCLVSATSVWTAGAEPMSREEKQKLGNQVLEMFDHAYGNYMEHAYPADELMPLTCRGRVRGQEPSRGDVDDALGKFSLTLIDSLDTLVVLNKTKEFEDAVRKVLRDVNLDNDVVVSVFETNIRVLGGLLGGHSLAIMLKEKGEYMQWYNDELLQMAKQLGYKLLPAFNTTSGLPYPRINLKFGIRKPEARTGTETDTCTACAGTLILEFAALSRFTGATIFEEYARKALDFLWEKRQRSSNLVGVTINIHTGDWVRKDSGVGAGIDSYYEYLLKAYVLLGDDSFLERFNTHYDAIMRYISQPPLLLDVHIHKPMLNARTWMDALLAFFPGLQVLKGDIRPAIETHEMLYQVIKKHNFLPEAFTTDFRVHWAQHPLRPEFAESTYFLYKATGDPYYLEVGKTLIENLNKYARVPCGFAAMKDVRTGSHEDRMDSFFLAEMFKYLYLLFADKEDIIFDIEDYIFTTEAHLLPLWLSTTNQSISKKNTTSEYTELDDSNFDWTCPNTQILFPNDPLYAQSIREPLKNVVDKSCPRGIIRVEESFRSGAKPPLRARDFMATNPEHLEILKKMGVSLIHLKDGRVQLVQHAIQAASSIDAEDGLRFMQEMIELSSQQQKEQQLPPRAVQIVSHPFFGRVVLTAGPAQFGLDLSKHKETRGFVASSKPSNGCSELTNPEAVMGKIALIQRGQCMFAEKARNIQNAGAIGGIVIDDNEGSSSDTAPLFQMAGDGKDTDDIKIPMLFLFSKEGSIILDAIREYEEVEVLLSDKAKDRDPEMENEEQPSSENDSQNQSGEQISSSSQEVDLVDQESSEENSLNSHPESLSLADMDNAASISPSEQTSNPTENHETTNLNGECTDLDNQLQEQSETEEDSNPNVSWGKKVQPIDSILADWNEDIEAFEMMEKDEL
UniProt Q16254: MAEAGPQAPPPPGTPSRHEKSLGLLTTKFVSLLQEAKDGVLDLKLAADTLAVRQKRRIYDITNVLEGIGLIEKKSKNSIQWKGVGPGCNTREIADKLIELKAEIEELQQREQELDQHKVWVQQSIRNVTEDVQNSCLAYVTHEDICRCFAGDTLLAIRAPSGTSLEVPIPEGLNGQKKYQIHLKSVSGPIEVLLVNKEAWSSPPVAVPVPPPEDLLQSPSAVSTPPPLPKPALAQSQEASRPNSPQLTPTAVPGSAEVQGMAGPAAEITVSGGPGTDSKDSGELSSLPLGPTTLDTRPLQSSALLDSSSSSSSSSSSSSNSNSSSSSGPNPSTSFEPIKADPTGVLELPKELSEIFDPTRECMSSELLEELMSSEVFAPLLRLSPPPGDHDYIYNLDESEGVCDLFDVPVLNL
UniProt Q14156: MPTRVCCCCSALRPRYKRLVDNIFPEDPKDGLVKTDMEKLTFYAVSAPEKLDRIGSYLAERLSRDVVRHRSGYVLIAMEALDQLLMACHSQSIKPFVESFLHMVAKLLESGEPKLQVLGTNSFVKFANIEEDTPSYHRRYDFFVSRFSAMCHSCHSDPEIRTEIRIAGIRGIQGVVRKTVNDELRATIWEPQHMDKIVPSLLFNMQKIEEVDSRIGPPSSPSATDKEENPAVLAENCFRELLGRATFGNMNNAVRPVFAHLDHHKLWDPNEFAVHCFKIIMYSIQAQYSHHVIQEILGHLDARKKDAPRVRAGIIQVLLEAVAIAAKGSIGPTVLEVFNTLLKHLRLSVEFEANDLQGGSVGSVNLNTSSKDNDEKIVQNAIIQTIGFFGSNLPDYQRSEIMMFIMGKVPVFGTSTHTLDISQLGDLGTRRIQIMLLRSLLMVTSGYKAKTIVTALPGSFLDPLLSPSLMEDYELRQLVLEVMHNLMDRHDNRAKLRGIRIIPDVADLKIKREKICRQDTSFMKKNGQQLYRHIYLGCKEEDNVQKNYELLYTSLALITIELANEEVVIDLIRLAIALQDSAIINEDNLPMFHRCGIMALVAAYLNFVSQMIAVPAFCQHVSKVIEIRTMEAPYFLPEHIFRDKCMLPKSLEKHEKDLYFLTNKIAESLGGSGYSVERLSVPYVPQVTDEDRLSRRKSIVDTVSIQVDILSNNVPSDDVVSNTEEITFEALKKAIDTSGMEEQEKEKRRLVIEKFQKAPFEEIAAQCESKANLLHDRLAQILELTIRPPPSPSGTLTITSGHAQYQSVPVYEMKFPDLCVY
UniProt Q5JPH6: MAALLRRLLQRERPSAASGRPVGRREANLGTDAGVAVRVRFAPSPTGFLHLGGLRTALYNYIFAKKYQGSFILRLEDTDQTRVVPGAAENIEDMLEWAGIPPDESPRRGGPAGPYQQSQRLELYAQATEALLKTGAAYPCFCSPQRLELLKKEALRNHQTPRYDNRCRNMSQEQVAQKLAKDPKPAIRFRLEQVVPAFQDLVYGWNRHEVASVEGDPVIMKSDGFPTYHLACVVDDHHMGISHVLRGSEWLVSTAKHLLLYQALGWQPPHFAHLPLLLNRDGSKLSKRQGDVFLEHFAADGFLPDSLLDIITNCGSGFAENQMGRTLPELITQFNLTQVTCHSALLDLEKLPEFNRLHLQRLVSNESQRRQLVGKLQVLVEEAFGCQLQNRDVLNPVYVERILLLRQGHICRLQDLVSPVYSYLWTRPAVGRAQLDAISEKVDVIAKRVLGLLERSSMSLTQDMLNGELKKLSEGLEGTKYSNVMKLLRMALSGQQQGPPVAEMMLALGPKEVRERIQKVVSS
UniProt P42892: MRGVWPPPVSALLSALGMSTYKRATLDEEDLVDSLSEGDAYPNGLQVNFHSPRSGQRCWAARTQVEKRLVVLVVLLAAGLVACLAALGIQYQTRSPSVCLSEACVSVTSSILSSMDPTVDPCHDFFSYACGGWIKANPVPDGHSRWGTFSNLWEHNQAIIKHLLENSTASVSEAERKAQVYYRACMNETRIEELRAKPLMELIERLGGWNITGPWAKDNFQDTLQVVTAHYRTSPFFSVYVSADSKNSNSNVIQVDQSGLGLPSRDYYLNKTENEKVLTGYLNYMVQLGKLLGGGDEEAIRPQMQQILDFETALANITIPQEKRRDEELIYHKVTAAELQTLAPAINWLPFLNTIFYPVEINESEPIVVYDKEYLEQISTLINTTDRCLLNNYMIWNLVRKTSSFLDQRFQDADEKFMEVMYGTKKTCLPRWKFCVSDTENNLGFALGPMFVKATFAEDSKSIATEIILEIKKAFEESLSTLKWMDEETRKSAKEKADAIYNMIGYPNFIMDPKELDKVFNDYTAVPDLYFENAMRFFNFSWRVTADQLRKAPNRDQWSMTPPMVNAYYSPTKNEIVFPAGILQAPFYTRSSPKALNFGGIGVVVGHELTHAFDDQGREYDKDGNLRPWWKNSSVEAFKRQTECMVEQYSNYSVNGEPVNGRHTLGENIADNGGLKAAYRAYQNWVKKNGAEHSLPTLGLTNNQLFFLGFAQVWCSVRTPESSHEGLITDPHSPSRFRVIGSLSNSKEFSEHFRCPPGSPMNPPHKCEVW
UniProt Q01658: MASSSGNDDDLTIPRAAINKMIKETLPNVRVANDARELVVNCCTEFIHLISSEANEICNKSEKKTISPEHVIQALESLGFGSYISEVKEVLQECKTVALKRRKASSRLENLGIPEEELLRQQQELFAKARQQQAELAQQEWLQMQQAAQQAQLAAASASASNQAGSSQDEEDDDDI
UniProt Q96FN9: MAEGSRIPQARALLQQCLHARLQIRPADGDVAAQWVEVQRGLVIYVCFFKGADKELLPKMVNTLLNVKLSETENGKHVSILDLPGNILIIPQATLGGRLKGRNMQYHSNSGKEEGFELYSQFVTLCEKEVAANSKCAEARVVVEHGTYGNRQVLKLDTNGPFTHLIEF
UniProt P24534: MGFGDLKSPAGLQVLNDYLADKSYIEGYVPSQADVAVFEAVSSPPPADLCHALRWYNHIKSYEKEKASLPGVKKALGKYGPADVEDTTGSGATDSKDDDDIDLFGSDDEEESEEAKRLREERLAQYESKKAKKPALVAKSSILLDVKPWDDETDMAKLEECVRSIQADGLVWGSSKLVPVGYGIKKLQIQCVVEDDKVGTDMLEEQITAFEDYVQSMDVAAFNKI
UniProt P47813, whole entry, looked up: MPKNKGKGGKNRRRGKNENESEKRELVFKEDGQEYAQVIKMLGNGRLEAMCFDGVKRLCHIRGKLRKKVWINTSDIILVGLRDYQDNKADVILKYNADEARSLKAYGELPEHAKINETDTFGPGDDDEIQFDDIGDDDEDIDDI
UniProt Q5VTE0, whole entry, looked up: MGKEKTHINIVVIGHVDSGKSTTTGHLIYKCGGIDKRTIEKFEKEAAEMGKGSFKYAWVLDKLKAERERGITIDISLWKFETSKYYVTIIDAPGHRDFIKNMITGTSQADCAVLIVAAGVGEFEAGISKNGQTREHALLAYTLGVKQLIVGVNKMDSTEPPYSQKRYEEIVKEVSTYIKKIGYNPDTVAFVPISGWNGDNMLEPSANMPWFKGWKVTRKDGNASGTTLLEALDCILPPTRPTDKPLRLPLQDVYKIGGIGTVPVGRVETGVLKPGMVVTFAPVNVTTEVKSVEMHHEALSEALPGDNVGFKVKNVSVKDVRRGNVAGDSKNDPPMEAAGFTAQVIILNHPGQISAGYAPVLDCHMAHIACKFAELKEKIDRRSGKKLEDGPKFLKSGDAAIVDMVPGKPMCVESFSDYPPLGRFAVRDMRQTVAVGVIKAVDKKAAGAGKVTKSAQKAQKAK
UniProt P63172, whole entry, looked up: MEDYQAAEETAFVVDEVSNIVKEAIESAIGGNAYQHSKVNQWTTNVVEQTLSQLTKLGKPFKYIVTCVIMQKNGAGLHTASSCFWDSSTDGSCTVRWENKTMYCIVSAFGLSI
UniProt Q9BVJ7: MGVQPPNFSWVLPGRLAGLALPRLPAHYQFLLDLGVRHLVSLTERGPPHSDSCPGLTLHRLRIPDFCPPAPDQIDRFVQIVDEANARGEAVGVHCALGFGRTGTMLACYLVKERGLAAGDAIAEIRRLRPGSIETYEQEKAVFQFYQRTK
UniProt O00418: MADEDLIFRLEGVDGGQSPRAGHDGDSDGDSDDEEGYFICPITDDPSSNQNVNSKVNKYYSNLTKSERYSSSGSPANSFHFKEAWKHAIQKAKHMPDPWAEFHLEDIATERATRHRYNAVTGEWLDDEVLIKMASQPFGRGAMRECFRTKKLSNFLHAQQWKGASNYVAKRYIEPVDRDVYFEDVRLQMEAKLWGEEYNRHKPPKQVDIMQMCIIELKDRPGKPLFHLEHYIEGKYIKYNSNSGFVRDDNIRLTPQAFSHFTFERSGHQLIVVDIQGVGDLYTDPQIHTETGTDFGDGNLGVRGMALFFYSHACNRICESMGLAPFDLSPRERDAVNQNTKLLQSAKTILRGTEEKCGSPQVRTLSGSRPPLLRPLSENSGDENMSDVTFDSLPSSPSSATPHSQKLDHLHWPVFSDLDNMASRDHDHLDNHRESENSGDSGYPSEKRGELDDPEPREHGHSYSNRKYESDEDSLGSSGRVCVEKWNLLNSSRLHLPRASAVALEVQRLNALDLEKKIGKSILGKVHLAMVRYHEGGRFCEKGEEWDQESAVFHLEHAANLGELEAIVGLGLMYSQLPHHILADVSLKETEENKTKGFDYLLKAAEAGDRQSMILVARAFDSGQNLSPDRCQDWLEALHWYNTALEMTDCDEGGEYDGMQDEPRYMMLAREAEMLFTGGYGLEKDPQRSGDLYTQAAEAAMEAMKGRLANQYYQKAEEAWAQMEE
UniProt Q14919: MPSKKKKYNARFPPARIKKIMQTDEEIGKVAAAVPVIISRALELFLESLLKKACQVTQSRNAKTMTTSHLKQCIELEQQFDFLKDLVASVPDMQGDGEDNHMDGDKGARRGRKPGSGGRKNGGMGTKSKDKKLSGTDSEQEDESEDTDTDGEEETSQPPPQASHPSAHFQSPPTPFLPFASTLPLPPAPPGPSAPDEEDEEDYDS
UniProt Q96EV8: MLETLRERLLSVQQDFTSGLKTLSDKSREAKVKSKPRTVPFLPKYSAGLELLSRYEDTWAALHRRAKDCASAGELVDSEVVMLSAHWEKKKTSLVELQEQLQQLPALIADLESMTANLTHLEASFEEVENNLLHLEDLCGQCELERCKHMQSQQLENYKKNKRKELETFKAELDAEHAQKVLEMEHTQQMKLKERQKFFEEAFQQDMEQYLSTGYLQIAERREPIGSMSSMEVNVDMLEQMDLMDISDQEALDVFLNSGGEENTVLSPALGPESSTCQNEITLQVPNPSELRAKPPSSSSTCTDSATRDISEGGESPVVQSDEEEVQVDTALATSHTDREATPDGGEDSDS

Tests used:
Test in all cases: log2 fold change, soluble protein after heating vs DMSO (PISA); higher = thermal stabilisation; K562 lysate, 10 uM; active = over 0.2 and 3.5 SD of the protein, either way, in both replicates (recomputed)
vemurafenib = compound: CCCS(=O)(=O)Nc1ccc(F)c(C(=O)c2c[nH]c3ncc(-c4ccc(Cl)cc4)cc23)c1F [vemurafenib]
Method in brief: (§1)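 Pellets of K562 cells were dounce-homogenised in PBS pH 7.4 with 1 mM MgCl2, and the crude extract was held at 1 mg/mL protein for a 30 min treatment with 10 μM compound. Aliquots were heated for 3 min over 48°C-58°C and pooled before NP-40 was added to 0.5% at 4°C. The supernatant from 21,000xg for 90 min was quantified by TMTpro 16plex LC-MS/MS with channel sums equalised. Values are reported from duplicates as log-two fold change in thermal stability relative to solvent controls.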

[1] = compound: CCCS(=O)(=O)Nc1ccc(F)c(C(=O)c2c[nH]c3ncc(Cl)cc23)c1F
Method in brief: as §1

barasertib = compound: CCN(CCCOc1ccc2c(Nc3cc(CC(=O)Nc4cccc(F)c4)[nH]n3)ncnc2c1)CCOP(=O)(O)O [barasertib]
Method in brief: as §1

[2] = compound: CC[C@@H]1C(=O)N(C)c2cnc(Nc3ccc(C(=O)NC4CCN(C)CC4)cc3OC)nc2N1C1CCCC1
Method in brief: as §1

volasertib = compound: CC[C@@H]1C(=O)N(C)c2cnc(Nc3ccc(C(=O)N[C@H]4CC[C@H](N5CCN(CC6CC6)CC5)CC4)cc3OC)nc2N1C(C)C [volasertib]
Method in brief: as §1

[3] = compound: CCn1c(C(=O)N(C2CC2)C2CC2)cc2c3c(ncn3C)c(Nc3cc(C)n(C)n3)nc21
Method in brief: as §1

[4] = compound: CCn1cc(-c2ccnc3[nH]c(-c4cccc(CN(C)C)c4)cc23)c(-c2ccc(NC(=O)N(C)C)cc2)n1
Method in brief: as §1

[5] = compound: CN1CCC(CNc2ccc3ncc(-c4cccc(OC(F)(F)F)c4)n3n2)CC1
Method in brief: as §1

saracatinib = compound: CN1CCN(CCOc2cc(OC3CCOCC3)c3c(Nc4c(Cl)ccc5c4OCO5)ncnc3c2)CC1 [saracatinib]
Method in brief: as §1

sotrastaurin = compound: CN1CCN(c2nc(C3=C(c4c[nH]c5ccccc45)C(=O)NC3=O)c3ccccc3n2)CC1 [sotrastaurin]
Method in brief: as §1

Measured: log2 fold change

EDEM1 (UniProt Q92611)
inactive: vemurafenib -0.052 | [1] 0.003 | barasertib -0.049 | [2] -0.143 | volasertib -0.006 | [3] -0.031 | [4] -0.024 | [5] -0.012 | saracatinib 0.044 | sotrastaurin -0.008

DPP7 (UniProt Q9UHL4)
inactive: vemurafenib 0.078 | [1] -0.015 | barasertib 0.035 | [2] 0.044 | volasertib 0.036 | [3] -0.028 | [4] -0.003 | [5] 0.055 | saracatinib -0.004 | sotrastaurin 0.018

DRG2 (UniProt P55039)
inactive: vemurafenib 0.036 | [1] 0.027 | barasertib 0.027 | [2] -0.044 | volasertib -0.02 | [3] -0.023 | [4] -0.057 | [5] 0.016 | saracatinib 0.02 | sotrastaurin 0.069

EDEM3 (UniProt Q9BZQ6)
inactive: vemurafenib 0.02 | [1] 0.04 | barasertib 0.046 | [2] -0.014 | volasertib -0.015 | [3] -0.002 | [4] -0.121 | [5] 0.078 | saracatinib -0.002 | sotrastaurin 0.025

E2F4 (UniProt Q16254)
inactive: vemurafenib -0.035 | [1] 0.007 | barasertib 0.101 | [2] 0.009 | volasertib 0.011 | [3] -0.025 | [4] -0.01 | [5] -0.092 | saracatinib -0.049 | sotrastaurin 0.04

DSG2 (UniProt Q14126)
inactive: vemurafenib 0.024 | [1] 0.007 | barasertib -0.033 | [2] 0.02 | volasertib -0.073 | [3] 0.091 | [4] 0.01 | [5] 0 | saracatinib 0.001 | sotrastaurin -0.037

EFR3A (UniProt Q14156)
inactive: vemurafenib -0.002 | [1] -0.012 | barasertib 0.354 | [2] -0.25 | volasertib 0.007 | [3] 0.116 | [4] -0.136 | [5] 0.035 | saracatinib 0.072

DPH1 (UniProt Q9BZG8)
inactive: vemurafenib -0.036 | [1] -0.018 | barasertib -0.003 | [2] 0.028 | volasertib -0.031 | [3] 0.001 | [4] 0.022 | [5] 0.04 | saracatinib 0.007 | sotrastaurin -0.015

EARS2 (UniProt Q5JPH6)
inactive: vemurafenib 0.042 | [1] 0.051 | barasertib 0.056 | [2] 0.041 | volasertib -0.054 | [3] -0.018 | [4] -0.046 | [5] 0.053 | saracatinib -0.03 | sotrastaurin 0.007

EEF1G isoform 2 (UniProt P26641)
inactive: vemurafenib -0.047 | [1] -0.021 | barasertib 0 | [2] -0.081 | volasertib -0.028 | [3] 0.016 | [4] 0.03 | [5] -0.12 | saracatinib -0.02 | sotrastaurin 0.007

ECE1 (UniProt P42892)
inactive: vemurafenib 0.027 | [1] 0.002 | barasertib 0.031 | [2] 0.08 | volasertib 0.022 | [3] 0.009 | [4] 0.006 | [5] 0.038 | saracatinib -0.005 | sotrastaurin 0.024

DR1 (UniProt Q01658)
inactive: vemurafenib -0.031 | [1] -0.019 | barasertib 0.037 | [2] 0.095 | volasertib 0.039 | [3] -0.012 | [4] -0.024 | [5] 0.017 | saracatinib 0.014 | sotrastaurin 0.015

DPY19L1, A0A1B0GW05
inactive: vemurafenib 0.092 | [1] 0.013 | barasertib -0.1 | [2] -0.008 | volasertib -0.008 | [3] -0.038 | [4] -0.022 | [5] -0.012 | saracatinib 0.018 | sotrastaurin -0.007

DTD2 (UniProt Q96FN9)
inactive: vemurafenib -0.161 | [1] -0.134 | barasertib 0.184 | [2] 0.031 | volasertib 0.044 | [3] 0.055 | [4] -0.01 | [5] 0.076 | saracatinib -0.055 | sotrastaurin 0.072

EEF1B2 (UniProt P24534)
inactive: vemurafenib 0.007 | [1] -0.043 | barasertib -0.028 | [2] -0.007 | volasertib 0.013 | [3] -0.018 | [4] -0.031 | [5] 0.034 | saracatinib -0.003 | sotrastaurin 0.023

EIF1AX (UniProt P47813)
inactive: vemurafenib -0.002 | [1] 0.118 | barasertib -0.053 | [2] 0.013 | volasertib 0.017 | [3] -0.033 | [4] 0.09 | [5] 0.02 | saracatinib -0.023 | sotrastaurin -0.061

DYM (UniProt Q7RTS9)
inactive: vemurafenib -0.126 | [1] 0.034 | barasertib 0.099 | [2] 0.051 | volasertib -0.013 | [3] 0.079 | [4] 0.033 | [5] -0.08 | saracatinib 0.136 | sotrastaurin -0.009

DYNLRB1 (UniProt Q9NP97)
inactive: vemurafenib 0 | [1] -0.03 | barasertib 0.082 | [2] 0.055 | volasertib 0.016 | [3] -0.015 | [4] -0.075 | [5] -0.071 | saracatinib 0.017 | sotrastaurin -0.004

EAF1 (UniProt Q96JC9)
inactive: vemurafenib -0.157 | [1] 0.102 | barasertib -0.011 | [2] -0.05 | volasertib 0.022 | [3] -0.011 | [4] -0.055 | [5] 0.06 | saracatinib -0.018 | sotrastaurin -0.008

EEF1A1P5 (UniProt Q5VTE0)
inactive: vemurafenib 0.022 | [1] 0.002 | barasertib -0.017 | [2] 0.004 | volasertib -0.022 | [3] -0.031 | [4] -0.105 | [5] 0.073 | saracatinib -0.021 | sotrastaurin 0.025

EEFSEC (UniProt P57772)
inactive: vemurafenib 0.031 | [1] 0.024 | barasertib 0.031 | [2] -0.067 | volasertib -0.035 | [3] -0.012 | [4] -0.073 | [5] 0.009 | saracatinib -0.015 | sotrastaurin -0.016

Reprinted at random: 2 entries already listed.
DR1 (UniProt Q01658)
inactive: vemurafenib -0.031 | [1] -0.019 | barasertib 0.037 | [2] 0.095 | volasertib 0.039 | [3] -0.012 | [4] -0.024 | [5] 0.017 | saracatinib 0.014 | sotrastaurin 0.015

EDEM3 (UniProt Q9BZQ6)
inactive: vemurafenib 0.02 | [1] 0.04 | barasertib 0.046 | [2] -0.014 | volasertib -0.015 | [3] -0.002 | [4] -0.121 | [5] 0.078 | saracatinib -0.002 | sotrastaurin 0.025

Additional records

DYNLT1 (UniProt P63172)
inactive: vemurafenib 0.007 | [1] -0.057 | barasertib -0.031 | [2] -0.012 | volasertib 0.046 | [3] -0.005 | [4] -0.029 | [5] 0.04 | saracatinib 0.037 | sotrastaurin -0.016

DUSP23 (UniProt Q9BVJ7)
inactive: vemurafenib 0.031 | [1] 0 | barasertib 0.188 | [2] -0.016 | volasertib 0.049 | [3] 0.04 | [4] -0.05 | [5] 0.06 | saracatinib -0.006 | sotrastaurin 0.015

EEF2K (UniProt O00418)
inactive: vemurafenib 0.037 | [1] 0.089 | barasertib 0.019 | [2] -0.107 | volasertib -0.045 | [3] 0.025 | [4] -0.028 | [5] -0.001 | saracatinib 0.028 | sotrastaurin 0.033

DRAP1 isoform 2 (UniProt Q14919)
inactive: vemurafenib 0.008 | [1] 0.013 | barasertib -0.037 | [2] 0.071 | volasertib 0.029 | [3] -0.027 | [4] 0.026 | [5] -0.021 | saracatinib -0.032 | sotrastaurin -0.018

DTNBP1 (UniProt Q96EV8)
inactive: vemurafenib 0.086 | [1] -0.005 | barasertib -0.028 | [2] 0.028 | volasertib 0.002 | [3] 0.019 | [4] -0.001 | [5] 0.022 | saracatinib 0.002 | sotrastaurin 0.029

EFCAB14 (UniProt O75071)
inactive: vemurafenib 0.022 | [1] 0.001 | barasertib -0.01 | [2] 0.039 | volasertib 0.008 | [3] -0.042 | [4] -0.058 | [5] 0.047 | saracatinib 0.023 | sotrastaurin 0.005

DPYSL2 (UniProt Q16555)
inactive: vemurafenib -0.066 | [1] 0.042 | barasertib -0.025 | [2] 0.06 | volasertib 0.003 | [3] -0.011 | [4] -0.05 | [5] 0.019 | saracatinib 0.082 | sotrastaurin -0.018

EFL1 (UniProt Q7Z2Z2)
inactive: vemurafenib -0.014 | [1] 0.03 | barasertib 0.01 | [2] -0.031 | volasertib -0.02 | [3] 0.003 | [4] 0.067 | [5] -0.025 | saracatinib 0.005 | sotrastaurin 0.01

ECD isoform 3 (UniProt O95905)
inactive: vemurafenib 0.02 | [1] 0.015 | barasertib 0.011 | [2] -0.062 | volasertib -0.001 | [3] -0.012 | [4] -0.005 | [5] -0.146 | saracatinib 0.029 | sotrastaurin 0.027
